Values of other authors as cited in US20120141611A1, “METHODS AND COMPOSITIONS USING ERGOTHIONEINE TO TREAT A VARIETY OF HEALTH RELATED FACTORS” (Oxis International Inc., priority 2010, published 2012).
For at least one compound, name, drawing or mass did not settle the structure.

Conditions: cited from earlier work

C[N+](C)(C)[C@@H](Cc1c[nH]c(=S)[nH]1)C(=O)[O-] [Ergothioneine, ergothioneine]
Stability to strong alkali: remarkably stable
